For the test, the target named is Halo-tagged REIC/DKK-3 (full-length human, pFN21A) (human) (UniProt Q9UBP4). Nature of the test: pull-down; lysates of PC3 cells expressing Halo-REIC/DKK-3, GFP-AR, FLAG-TCTEX-1 and HA-SGTA; pulled down by Halo-tagged REIC/DKK-3; Western blot with anti-Halo, -HA, -FLAG and -GFP. (A western blot detects proteins with antibodies after separation by electrophoresis.)

By UniProt entry, the sequences of proteins in these tests, tags left out. Residues count along the entry.
UniProt Q9UBP4, residues 22-350: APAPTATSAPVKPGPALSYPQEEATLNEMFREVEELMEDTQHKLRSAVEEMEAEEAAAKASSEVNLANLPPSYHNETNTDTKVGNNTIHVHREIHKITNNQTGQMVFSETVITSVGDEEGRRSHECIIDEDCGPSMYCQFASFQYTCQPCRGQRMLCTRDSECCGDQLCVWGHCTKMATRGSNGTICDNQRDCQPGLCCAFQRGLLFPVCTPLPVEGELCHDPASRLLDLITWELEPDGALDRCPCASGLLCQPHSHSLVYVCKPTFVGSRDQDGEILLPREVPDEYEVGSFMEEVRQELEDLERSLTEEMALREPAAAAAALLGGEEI
UniProt P10275: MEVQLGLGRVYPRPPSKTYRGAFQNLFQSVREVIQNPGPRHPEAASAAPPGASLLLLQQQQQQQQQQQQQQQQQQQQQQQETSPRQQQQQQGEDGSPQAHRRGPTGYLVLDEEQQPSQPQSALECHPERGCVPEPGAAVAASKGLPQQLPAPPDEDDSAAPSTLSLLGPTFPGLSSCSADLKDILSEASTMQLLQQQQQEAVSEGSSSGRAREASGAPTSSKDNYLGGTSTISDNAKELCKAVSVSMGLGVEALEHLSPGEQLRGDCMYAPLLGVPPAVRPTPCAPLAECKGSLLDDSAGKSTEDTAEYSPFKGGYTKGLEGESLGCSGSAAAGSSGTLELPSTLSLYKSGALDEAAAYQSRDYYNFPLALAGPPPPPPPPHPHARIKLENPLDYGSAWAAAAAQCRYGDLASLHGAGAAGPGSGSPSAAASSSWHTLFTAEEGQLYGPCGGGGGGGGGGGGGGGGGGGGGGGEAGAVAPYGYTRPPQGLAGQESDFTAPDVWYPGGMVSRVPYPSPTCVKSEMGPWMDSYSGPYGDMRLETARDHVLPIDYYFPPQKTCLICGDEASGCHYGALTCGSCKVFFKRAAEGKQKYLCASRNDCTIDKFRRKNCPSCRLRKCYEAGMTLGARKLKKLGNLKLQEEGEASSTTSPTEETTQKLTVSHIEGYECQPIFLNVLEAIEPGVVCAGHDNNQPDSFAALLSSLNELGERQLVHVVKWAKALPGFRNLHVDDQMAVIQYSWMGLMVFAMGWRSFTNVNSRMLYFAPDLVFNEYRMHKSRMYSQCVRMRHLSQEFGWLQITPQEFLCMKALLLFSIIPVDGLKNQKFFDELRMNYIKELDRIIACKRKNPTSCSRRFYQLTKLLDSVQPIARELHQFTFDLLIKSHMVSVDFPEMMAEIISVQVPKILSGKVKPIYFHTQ
UniProt P63172: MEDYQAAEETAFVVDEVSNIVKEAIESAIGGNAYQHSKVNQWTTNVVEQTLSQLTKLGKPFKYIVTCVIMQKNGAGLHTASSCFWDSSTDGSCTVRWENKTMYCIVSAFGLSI

These are yes or no findings as the source states them, for the method shown. Binding seen in cells or lysates may run through a third protein. Some results given as binding are weak or reduced against the parent protein; the word gives no strength.

Turning to “GFP-tagged AR (pEGFP-C1-AR, full-length androgen receptor) (from UniProt P10275 1-920)”, the binding entry is “binds”.
Turning to “FLAG-tagged TCTEX-1 (from UniProt P63172 1-113)”, the binding entry is given as “binds”.
